Assay results from patent publication US10653680B2, “Treatment of impulsivity-related disorders” (OXFORD UNIVERSITY INNOVATION LIMITED, priority 2016, dated 2020).

Test system: healthy participants
Assay: Human study: subjective ratings (PANAS mood, side effect profile, LSEQ sleep, guess of treatment arm)
Type: in vivo
Description: Twenty healthy participants (7 females, 13 males; mean age 25.1 years, range 20-38 years; mean BMI 22.7 kg/m^2, range 18.7-30.0 kg/m^2) were included in the study after giving full informed written consent.
Exclusion criteria included a history of any DSM-5 Axis I psychiatric disorder (determined using the […] for Diagnostic and Statistical Manual for Mental Health Disorders), significant current medical condition, current regular medication (apart from the contraceptive pill), pregnancy or lactation, heavy smoking (defined as more than 5 cigarettes per day) and having taken part in another study involving an investigational drug within the previous 3 months. Participants were asked to maintain stable exercise and diet as well as refrain from alcohol during study participation.
Ebselen capsules and identical matching placebo (containing microcrystalline cellulose) were purchased from Shasun Pharmaceuticals Ltd. Participants were tested twice (seven days apart) receiving on one occasion ebselen and, on the other, placebo in a randomised, double-blind, cross-over design. Ebselen was administered in 6×200 mg capsules in three doses given over two days. The order of receiving either the ebselen or the placebo was randomised.
On the day before cognitive testing, participants took the first dose at 1 pm and the second dose at 10 pm. The final dose was taken around 3 hrs prior to cognitive testing. […]
On the screening visit, participants were assessed for baseline depression and anxiety symptoms with the Beck Depression Inventory (Beck et al.; Arch. Gen. Psychiatry; 1961, 4: 561-571) and the state measure of the State-Trait Anxiety Inventory (STAI) (Spielberger et al.; Manual for the State-Trait Anxiety Inventory, Consulting Psychologists Press, Palo Alto Calif., 1983), and for personality with the Eysenck Personality Questionnaire (Eysenck and Eysenck, Manual of the Eysenck Personality Questionnaire, London: Hodder & Stoughton, 1975). […]

O=c1c2ccccc2[se]n1-c1ccccc1 [Ebselen, 2-phenyl-1,2-benzisoselenazol-3(2H)-one]
PANAS - Positive, Mean ± SEM (20 healthy participants, ebselen 6x200 mg capsules in three doses over two days, vs placebo p = 0.204): 29.8 ± 1.2
PANAS - Negative, Mean ± SEM (20 healthy participants, ebselen 6x200 mg capsules in three doses over two days, vs placebo p = 0.818): 11.9 ± 0.7
effects of treatment on mood (PANAS) (ebselen vs placebo, repeated measures ANOVA): no main or interactive effects
